The supplement of paper PMC12823440, “Inhibitors supercharge kinase turnover through native proteolytic circuits” (Nature, 2025)
The list shows a part of the results. The calls rarely recur for the same compound in another form.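 Kinases were expressed as nanoluciferase fusions in K562 cells and luminescence was read every 4 h between 2 and 18 h as percent of control, DMSO set to 100% and a positive control to 0%. A time point counts as decreased when the signal drops significantly (2 sigma). The hit call is the authors' own, does not follow from the count of time points alone, and its rule is not shown.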

Protein sequences, listed by entry. Tags and fused reporters are not part of them. Lines headed by an entry give the natural chain unless they say otherwise; changes in a name come on top.
UniProt Q9Y616: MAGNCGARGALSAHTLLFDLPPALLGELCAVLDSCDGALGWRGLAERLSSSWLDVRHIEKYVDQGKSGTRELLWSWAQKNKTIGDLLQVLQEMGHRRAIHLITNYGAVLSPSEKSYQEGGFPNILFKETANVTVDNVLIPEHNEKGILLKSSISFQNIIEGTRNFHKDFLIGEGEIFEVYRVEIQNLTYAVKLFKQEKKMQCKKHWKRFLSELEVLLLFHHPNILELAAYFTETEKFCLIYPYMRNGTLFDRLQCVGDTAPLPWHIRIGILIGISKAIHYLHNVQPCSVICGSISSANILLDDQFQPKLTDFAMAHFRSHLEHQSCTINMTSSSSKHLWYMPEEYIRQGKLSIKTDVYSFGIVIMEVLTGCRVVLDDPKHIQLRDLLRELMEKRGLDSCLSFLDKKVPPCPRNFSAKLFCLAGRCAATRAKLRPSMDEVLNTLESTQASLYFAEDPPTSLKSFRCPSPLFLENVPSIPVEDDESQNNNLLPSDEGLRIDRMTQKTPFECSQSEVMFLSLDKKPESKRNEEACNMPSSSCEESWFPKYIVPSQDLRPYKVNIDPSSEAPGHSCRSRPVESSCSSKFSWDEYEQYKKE
UniProt P06239: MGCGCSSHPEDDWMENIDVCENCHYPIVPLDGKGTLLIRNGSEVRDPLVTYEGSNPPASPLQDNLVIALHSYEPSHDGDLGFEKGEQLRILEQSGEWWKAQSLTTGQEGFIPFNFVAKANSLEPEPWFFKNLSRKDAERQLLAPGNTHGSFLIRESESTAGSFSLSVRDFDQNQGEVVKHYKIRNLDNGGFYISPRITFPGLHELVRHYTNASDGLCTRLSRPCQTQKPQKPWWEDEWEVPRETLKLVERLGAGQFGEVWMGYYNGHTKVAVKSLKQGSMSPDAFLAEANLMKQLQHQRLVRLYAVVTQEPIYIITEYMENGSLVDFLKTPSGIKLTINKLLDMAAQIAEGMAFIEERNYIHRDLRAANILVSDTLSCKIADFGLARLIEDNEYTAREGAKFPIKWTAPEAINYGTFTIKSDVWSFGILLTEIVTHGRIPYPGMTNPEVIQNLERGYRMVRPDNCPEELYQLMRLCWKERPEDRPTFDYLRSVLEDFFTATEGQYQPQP
UniProt P53667: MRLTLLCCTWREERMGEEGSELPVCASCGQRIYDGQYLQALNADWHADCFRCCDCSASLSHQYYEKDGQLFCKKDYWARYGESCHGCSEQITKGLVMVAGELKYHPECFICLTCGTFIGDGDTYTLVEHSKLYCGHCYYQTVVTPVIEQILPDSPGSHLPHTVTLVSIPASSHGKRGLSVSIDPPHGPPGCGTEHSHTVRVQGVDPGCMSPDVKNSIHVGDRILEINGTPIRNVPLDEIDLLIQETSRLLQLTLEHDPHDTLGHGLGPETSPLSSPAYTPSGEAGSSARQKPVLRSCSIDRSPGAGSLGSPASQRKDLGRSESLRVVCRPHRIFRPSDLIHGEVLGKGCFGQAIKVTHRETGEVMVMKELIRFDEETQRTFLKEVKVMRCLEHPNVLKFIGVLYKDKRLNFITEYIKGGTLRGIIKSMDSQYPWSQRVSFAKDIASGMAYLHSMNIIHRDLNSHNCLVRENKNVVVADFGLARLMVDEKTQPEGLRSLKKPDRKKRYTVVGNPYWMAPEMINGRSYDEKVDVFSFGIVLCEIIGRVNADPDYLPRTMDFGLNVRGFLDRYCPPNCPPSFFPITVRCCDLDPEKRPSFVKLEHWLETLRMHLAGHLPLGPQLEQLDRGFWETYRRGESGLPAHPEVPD
UniProt P53671: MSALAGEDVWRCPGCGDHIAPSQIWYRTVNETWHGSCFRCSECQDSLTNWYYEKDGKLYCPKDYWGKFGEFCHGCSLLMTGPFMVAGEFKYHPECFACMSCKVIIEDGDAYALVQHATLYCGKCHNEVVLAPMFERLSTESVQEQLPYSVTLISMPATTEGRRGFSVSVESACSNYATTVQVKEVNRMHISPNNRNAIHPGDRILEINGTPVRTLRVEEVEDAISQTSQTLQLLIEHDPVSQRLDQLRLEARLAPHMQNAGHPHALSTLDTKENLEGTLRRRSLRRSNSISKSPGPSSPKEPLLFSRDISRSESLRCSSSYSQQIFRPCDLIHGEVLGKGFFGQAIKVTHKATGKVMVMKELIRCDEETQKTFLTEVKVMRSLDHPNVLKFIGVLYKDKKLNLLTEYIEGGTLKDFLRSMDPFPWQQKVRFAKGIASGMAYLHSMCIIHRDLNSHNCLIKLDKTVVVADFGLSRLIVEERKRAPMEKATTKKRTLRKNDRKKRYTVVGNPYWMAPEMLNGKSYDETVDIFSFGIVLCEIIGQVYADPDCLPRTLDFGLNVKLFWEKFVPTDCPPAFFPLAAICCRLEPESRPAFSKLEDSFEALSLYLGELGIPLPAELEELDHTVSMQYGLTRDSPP
UniProt P07948: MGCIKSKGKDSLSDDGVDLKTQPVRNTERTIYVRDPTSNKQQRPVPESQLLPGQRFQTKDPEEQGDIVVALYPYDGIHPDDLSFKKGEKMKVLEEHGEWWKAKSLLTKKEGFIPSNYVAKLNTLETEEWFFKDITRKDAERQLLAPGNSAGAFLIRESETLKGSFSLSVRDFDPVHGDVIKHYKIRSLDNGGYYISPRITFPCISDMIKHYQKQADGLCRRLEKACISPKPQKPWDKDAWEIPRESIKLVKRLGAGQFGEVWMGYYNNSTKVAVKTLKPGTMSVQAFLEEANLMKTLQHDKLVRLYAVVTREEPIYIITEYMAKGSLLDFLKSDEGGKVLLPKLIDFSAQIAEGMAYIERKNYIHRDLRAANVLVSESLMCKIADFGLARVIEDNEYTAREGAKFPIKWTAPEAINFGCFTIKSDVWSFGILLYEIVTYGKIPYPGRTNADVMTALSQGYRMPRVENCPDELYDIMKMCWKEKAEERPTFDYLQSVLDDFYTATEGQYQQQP
UniProt P28482, whole entry: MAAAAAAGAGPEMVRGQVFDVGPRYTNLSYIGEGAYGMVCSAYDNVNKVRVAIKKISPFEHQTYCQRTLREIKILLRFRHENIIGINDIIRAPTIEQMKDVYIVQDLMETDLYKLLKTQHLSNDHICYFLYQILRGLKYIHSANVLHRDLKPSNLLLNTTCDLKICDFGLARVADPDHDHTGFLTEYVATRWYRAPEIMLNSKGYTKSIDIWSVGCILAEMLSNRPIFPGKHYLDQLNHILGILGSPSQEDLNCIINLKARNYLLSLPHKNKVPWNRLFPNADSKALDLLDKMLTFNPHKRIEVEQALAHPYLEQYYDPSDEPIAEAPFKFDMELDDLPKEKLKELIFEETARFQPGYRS
UniProt P49137, whole entry, looked up: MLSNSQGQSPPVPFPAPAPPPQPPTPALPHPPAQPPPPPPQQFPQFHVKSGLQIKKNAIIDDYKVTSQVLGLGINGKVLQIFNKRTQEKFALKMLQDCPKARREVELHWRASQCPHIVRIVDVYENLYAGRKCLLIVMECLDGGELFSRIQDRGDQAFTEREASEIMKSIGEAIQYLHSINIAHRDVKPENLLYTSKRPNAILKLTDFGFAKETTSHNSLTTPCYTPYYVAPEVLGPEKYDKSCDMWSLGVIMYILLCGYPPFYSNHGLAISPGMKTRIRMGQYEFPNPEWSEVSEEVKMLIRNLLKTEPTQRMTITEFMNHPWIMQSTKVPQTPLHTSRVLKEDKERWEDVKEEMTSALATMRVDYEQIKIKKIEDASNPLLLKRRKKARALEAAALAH
UniProt Q16620, whole entry, looked up: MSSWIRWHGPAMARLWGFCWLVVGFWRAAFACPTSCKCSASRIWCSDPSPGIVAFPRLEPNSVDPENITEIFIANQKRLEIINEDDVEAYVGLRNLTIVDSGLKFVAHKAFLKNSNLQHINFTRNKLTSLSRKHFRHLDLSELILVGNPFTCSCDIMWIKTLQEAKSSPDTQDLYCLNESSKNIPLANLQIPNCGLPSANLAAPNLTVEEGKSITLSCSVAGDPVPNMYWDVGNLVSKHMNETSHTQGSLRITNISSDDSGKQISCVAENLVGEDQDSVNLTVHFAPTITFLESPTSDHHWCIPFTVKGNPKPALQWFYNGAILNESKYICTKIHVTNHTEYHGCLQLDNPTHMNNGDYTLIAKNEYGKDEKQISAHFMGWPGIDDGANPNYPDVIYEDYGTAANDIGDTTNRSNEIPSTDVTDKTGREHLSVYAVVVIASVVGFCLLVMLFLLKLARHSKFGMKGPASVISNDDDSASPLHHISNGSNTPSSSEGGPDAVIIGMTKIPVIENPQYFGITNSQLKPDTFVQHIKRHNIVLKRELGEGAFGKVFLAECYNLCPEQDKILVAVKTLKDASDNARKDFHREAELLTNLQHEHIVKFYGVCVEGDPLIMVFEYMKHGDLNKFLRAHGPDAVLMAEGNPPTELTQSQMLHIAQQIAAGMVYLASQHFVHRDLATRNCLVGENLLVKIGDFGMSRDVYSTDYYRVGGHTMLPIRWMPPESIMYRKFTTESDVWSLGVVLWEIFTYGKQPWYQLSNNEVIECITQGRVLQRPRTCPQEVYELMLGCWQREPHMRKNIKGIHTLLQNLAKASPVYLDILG
UniProt Q96KB5: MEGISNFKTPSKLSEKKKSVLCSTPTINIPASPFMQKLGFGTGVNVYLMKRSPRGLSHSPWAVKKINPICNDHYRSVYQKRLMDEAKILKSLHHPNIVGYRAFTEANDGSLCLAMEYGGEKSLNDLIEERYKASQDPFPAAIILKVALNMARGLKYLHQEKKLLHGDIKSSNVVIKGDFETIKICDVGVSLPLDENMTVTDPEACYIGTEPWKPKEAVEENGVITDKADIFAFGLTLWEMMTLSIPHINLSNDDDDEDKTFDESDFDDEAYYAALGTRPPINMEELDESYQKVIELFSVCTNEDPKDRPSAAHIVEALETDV
UniProt P09619, whole entry: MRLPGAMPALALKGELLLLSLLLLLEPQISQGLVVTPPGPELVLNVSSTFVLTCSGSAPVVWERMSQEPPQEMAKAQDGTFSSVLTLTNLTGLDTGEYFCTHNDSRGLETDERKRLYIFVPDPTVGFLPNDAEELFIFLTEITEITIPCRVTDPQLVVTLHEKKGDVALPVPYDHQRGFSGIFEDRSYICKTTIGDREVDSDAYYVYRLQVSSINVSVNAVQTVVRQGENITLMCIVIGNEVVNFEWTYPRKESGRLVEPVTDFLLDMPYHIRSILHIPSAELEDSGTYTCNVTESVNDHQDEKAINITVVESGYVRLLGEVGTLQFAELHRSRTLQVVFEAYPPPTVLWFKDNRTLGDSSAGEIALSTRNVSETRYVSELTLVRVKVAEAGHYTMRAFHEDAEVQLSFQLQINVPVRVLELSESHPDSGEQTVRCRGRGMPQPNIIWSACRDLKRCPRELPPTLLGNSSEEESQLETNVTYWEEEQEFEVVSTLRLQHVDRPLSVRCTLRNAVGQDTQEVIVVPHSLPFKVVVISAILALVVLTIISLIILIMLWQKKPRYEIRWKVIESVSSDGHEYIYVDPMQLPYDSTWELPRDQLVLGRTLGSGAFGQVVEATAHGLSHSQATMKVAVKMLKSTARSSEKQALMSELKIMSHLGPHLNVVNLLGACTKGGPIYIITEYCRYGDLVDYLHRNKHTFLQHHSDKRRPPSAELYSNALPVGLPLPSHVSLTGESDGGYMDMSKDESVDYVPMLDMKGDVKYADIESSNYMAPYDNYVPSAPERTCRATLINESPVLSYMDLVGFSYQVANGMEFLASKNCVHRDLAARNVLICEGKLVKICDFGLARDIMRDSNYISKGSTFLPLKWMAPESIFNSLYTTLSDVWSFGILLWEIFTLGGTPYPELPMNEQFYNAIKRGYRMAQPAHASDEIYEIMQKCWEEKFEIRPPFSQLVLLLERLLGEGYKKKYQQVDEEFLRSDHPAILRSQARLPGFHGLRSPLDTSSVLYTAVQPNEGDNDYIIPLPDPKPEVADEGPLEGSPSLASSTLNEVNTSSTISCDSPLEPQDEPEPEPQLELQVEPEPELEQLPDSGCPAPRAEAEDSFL
UniProt Q15118, whole entry, looked up: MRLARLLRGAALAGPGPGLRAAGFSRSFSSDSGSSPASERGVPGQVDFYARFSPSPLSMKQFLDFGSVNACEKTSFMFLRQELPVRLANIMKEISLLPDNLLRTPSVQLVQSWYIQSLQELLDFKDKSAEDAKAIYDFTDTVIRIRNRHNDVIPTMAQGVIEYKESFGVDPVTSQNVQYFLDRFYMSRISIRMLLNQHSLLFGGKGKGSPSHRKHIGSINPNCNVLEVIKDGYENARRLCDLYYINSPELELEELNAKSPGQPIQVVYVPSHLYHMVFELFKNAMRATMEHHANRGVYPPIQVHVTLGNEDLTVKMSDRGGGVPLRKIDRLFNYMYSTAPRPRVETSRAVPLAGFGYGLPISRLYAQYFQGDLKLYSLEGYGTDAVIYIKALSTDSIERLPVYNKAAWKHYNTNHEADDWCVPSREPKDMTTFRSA

Columns and labels:
Experiment in all cases: kinase-Nluc reporter destabilization hit call (1 = scored as downregulated) (binary); higher = compound decreases kinase abundance
Conditions in all cases: K562; 2-18 h
[1] = target: IRAK3 (UniProt Q9Y616)
[2] = target: JAK1 (UniProt P23458)
[3] = target: LCK (UniProt P06239)
[4] = target: LIMK1 (UniProt P53667)
[5] = target: LIMK2 (UniProt P53671)
[6] = target: LMTK2 (UniProt Q8IWU2)
[7] = target: LYN (UniProt P07948)
[8] = target: MAP2K1 (UniProt Q02750)
[9] = target: MAP2K2 (UniProt P36507)
[10] = target: MAP4K2 (UniProt Q12851)
[11] = target: MAPK1 (UniProt P28482)
[12] = target: MAPK4 (UniProt P31152)
[13] = target: MAPKAPK2 (UniProt P49137)
[14] = target: MKNK1 (UniProt Q9BUB5)
[15] = target: NTRK2 (UniProt Q16620)
[16] = target: NTRK3 (UniProt Q16288)
[17] = target: PAK4 (UniProt O96013)
[18] = target: PBK (UniProt Q96KB5)
[19] = target: PDGFRB (UniProt P09619)
[20] = target: PDK1 (UniProt Q15118)

Measured: kinase-Nluc reporter destabilization hit call

CCn1c(-c2nonc2N)nc2c(C#CC(C)(C)O)ncc(OC[C@H]3CCCNC3)c21 (10 µM)
inactive: [1] 0 | [2] 0 | [3] 0 | [4] 0 | [5] 0 | [6] 0 | [7] 0 | [8] 0 | [9] 0 | [10] 0 | [11] 0 | [12] 0 | [13] 0 | [14] 0 | [15] 0 | [16] 0 | [17] 0 | [18] 0 | [19] 0 | [20] 0

Brc1ccc(CSc2nc3ccccc3o2)cc1 [BMP signaling agonist sb4] (10 µM)
inactive: [1] 0 | [2] 0 | [3] 0 | [4] 0 | [5] 0 | [6] 0 | [7] 0 | [8] 0 | [9] 0 | [10] 0 | [11] 0 | [12] 0 | [13] 0 | [14] 0 | [15] 0 | [16] 0 | [17] 0 | [18] 0 | [19] 0 | [20] 0

Cc1cc(O)c2c(c1)C(=O)c1cccc(O)c1C2=O [Chrysophanol] (2 µM)
inactive: [1] 0 | [2] 0 | [3] 0 | [4] 0 | [5] 0 | [6] 0 | [7] 0 | [8] 0 | [9] 0 | [10] 0 | [11] 0 | [12] 0 | [13] 0 | [14] 0 | [15] 0 | [16] 0 | [17] 0 | [18] 0 | [19] 0 | [20] 0

CN1CCN(c2cc(-c3ccncc3)c(-c3ccc4ccccc4c3)nn2)CC1 (10 µM)
inactive: [1] 0 | [2] 0 | [3] 0 | [4] 0 | [5] 0 | [6] 0 | [7] 0 | [8] 0 | [9] 0 | [10] 0 | [11] 0 | [12] 0 | [13] 0 | [14] 0 | [15] 0 | [16] 0 | [17] 0 | [18] 0 | [19] 0 | [20] 0

CCN1CCN(Cc2cnc(Nc3cc(-c4cc(F)c5nc(C)n(C(C)C)c5c4)c(F)cn3)nc2)CC1 (10 µM)
inactive: [1] 0 | [2] 0 | [3] 0 | [4] 0 | [5] 0 | [6] 0 | [7] 0 | [8] 0 | [9] 0 | [10] 0 | [11] 0 | [12] 0 | [13] 0 | [14] 0 | [15] 0 | [16] 0 | [17] 0 | [18] 0 | [19] 0 | [20] 0

N[C@@H]1CCCN(c2c(/C=C3\SC(=O)NC3=O)cccc2-c2ccccc2)C1 (10 µM)
inactive: [1] 0 | [2] 0 | [3] 0 | [4] 0 | [5] 0 | [6] 0 | [7] 0 | [8] 0 | [9] 0 | [10] 0 | [11] 0 | [12] 0 | [13] 0 | [14] 0 | [15] 0 | [16] 0 | [17] 0 | [18] 0 | [19] 0 | [20] 0

CCNC(=O)C#Cc1ccc2c(C(=Nc3ccc(CN(C)C)cc3)c3ccccc3)c(O)[nH]c2c1 (2.5 µM)
inactive: [1] 0 | [2] 0 | [3] 0 | [4] 0 | [5] 0 | [6] 0 | [7] 0 | [8] 0 | [9] 0 | [10] 0 | [11] 0 | [12] 0 | [13] 0 | [14] 0 | [15] 0 | [16] 0 | [17] 0 | [18] 0 | [19] 0 | [20] 0

CC(Cc1ccc(O)c(O)c1)C(C)Cc1ccc(O)c(O)c1 (stereo not given) [Nordihydroguaiaretic acid] (2.5 µM)
inactive: [1] 0 | [2] 0 | [3] 0 | [4] 0 | [5] 0 | [6] 0 | [7] 0 | [8] 0 | [9] 0 | [10] 0 | [11] 0 | [12] 0 | [13] 0 | [14] 0 | [15] 0 | [16] 0 | [17] 0 | [18] 0 | [19] 0 | [20] 0

Cc1cc(Nc2cc(N3CCN(C)CC3)nc(Nc3ccc([N+](=O)[O-])cc3)n2)n[nH]1 (2.5 µM)
inactive: [1] 0 | [2] 0 | [3] 0 | [4] 0 | [5] 0 | [6] 0 | [7] 0 | [8] 0 | [9] 0 | [10] 0 | [11] 0 | [12] 0 | [13] 0 | [14] 0 | [15] 0 | [16] 0 | [17] 0 | [18] 0 | [19] 0 | [20] 0

COc1ccc(Br)cc1NC(=O)Nc1cccc2c1ccn2Cc1ccnc(N)c1 (2.5 µM)
inactive: [1] 0 | [2] 0 | [3] 0 | [4] 0 | [5] 0 | [6] 0 | [7] 0 | [8] 0 | [9] 0 | [10] 0 | [11] 0 | [12] 0 | [13] 0 | [14] 0 | [15] 0 | [16] 0 | [17] 0 | [18] 0 | [19] 0 | [20] 0

Cn1c(CNc2cccc(C(=O)NCc3ccccc3C(F)(F)F)c2)nnc1-c1ccncc1 (10 µM)
inactive: [1] 0 | [2] 0 | [3] 0 | [4] 0 | [5] 0 | [6] 0 | [7] 0 | [8] 0 | [9] 0 | [10] 0 | [11] 0 | [12] 0 | [13] 0 | [14] 0 | [15] 0 | [16] 0 | [17] 0 | [18] 0 | [19] 0 | [20] 0

Pulled one by one from the list above (two):
CCNC(=O)C#Cc1ccc2c(C(=Nc3ccc(CN(C)C)cc3)c3ccccc3)c(O)[nH]c2c1 (2.5 µM)
inactive: [1] 0 | [2] 0 | [3] 0 | [4] 0 | [5] 0 | [6] 0 | [7] 0 | [8] 0 | [9] 0 | [10] 0 | [11] 0 | [12] 0 | [13] 0 | [14] 0 | [15] 0 | [16] 0 | [17] 0 | [18] 0 | [19] 0 | [20] 0

CC(Cc1ccc(O)c(O)c1)C(C)Cc1ccc(O)c(O)c1 (stereo not given) [Nordihydroguaiaretic acid] (2.5 µM)
inactive: [1] 0 | [2] 0 | [3] 0 | [4] 0 | [5] 0 | [6] 0 | [7] 0 | [8] 0 | [9] 0 | [10] 0 | [11] 0 | [12] 0 | [13] 0 | [14] 0 | [15] 0 | [16] 0 | [17] 0 | [18] 0 | [19] 0 | [20] 0

Further entries follow.

C=CC(=O)N1CCC[C@@H](n2nc(-c3ccc(Oc4ccccc4)cc3)c3c(N)n[nH]c(=O)c32)C1 [BTK inhibitor 17] (10 µM)
inactive: [1] 0 | [2] 0 | [3] 0 | [4] 0 | [5] 0 | [6] 0 | [7] 0 | [8] 0 | [9] 0 | [10] 0 | [11] 0 | [12] 0 | [13] 0 | [14] 0 | [15] 0 | [16] 0 | [17] 0 | [18] 0 | [19] 0 | [20] 0

Cc1cc(C(=O)Nc2nc3cccc(Cl)c3n2[C@@H]2CCCCN(C(=O)/C=C/CN(C)C)C2)ccn1 [Nazartinib] (10 µM)
inactive: [1] 0 | [2] 0 | [3] 0 | [4] 0 | [5] 0 | [6] 0 | [7] 0 | [8] 0 | [9] 0 | [10] 0 | [11] 0 | [12] 0 | [13] 0 | [14] 0 | [15] 0 | [16] 0 | [17] 0 | [18] 0 | [19] 0 | [20] 0

N#Cc1ccc(-c2cnc3[nH]cc(NC(=O)c4cccnc4)c3c2)cc1 (10 µM)
inactive: [1] 0 | [2] 0 | [3] 0 | [4] 0 | [5] 0 | [6] 0 | [7] 0 | [8] 0 | [9] 0 | [10] 0 | [11] 0 | [12] 0 | [13] 0 | [14] 0 | [15] 0 | [16] 0 | [17] 0 | [18] 0 | [19] 0 | [20] 0

CCC(=O)Nc1cccc(Oc2nc(Nc3ccc(N4CCN(C)CC4)cc3OC)ncc2Cl)c1 (10 µM)
inactive: [1] 0 | [2] 0 | [3] 0 | [4] 0 | [5] 0 | [6] 0 | [7] 0 | [8] 0 | [9] 0 | [10] 0 | [11] 0 | [12] 0 | [13] 0 | [14] 0 | [15] 0 | [16] 0 | [17] 0 | [18] 0 | [19] 0 | [20] 0

COc1ccc(S(=O)(=O)Nc2cc(-c3c(O)ccc4ccccc34)c(O)c3ccccc23)cc1 (10 µM)
inactive: [1] 0 | [2] 0 | [3] 0 | [4] 0 | [5] 0 | [6] 0 | [7] 0 | [8] 0 | [9] 0 | [10] 0 | [11] 0 | [12] 0 | [13] 0 | [14] 0 | [15] 0 | [16] 0 | [17] 0 | [18] 0 | [19] 0 | [20] 0

CN1CCC(CNc2ccc3ncc(-c4cccc(OC(F)(F)F)c4)n3n2)CC1 (2.5 µM)
inactive: [1] 0 | [2] 0 | [3] 0 | [4] 0 | [5] 0 | [6] 0 | [7] 0 | [8] 0 | [9] 0 | [10] 0 | [11] 0 | [12] 0 | [13] 0 | [14] 0 | [15] 0 | [16] 0 | [17] 0 | [18] 0 | [19] 0 | [20] 0

O=C1CC[C@H](NC(=O)Cc2ccccc2)C(=O)N1 [Antineoplaston A10] (10 µM)
inactive: [1] 0 | [2] 0 | [3] 0 | [4] 0 | [5] 0 | [6] 0 | [7] 0 | [8] 0 | [9] 0 | [10] 0 | [11] 0 | [12] 0 | [13] 0 | [14] 0 | [15] 0 | [16] 0 | [17] 0 | [18] 0 | [19] 0 | [20] 0
